Source: PMC8287910

Columns and labels:
SLX1 + SLX4 F2 = test: fluorescence polarization; conditions: Kd value shown only in Fig 3A; FPA: 100 nM FAM-DNA, 20 mM Tris pH 8.0, 100 mM NaCl, 30 min, room temperature, Hill slope fit; DNA annealed in 20 mM Tris pH 8.0, 150 mM NaCl; recombinant protein; protein details: 6xHis
[1] = molecular target: SLX4 CCD (F5) (Saccharomyces cerevisiae) (UniProt Q12098); test: fluorescence polarization; conditions: without SLX1; FPA: 100 nM FAM-DNA, 20 mM Tris pH 8.0, 100 mM NaCl, 30 min, room temperature, Hill slope fit; DNA annealed in 20 mM Tris pH 8.0, 150 mM NaCl; recombinant protein; residues 675-748; protein details: 6xHis
[2] = molecular target: SLX4 SAP+CCD (F1) (Saccharomyces cerevisiae) (UniProt Q12098); test: fluorescence polarization; conditions: without SLX1; FPA: 100 nM FAM-DNA, 20 mM Tris pH 8.0, 100 mM NaCl, 30 min, room temperature, Hill slope fit; DNA annealed in 20 mM Tris pH 8.0, 150 mM NaCl; recombinant protein; residues 610-748; protein details: 6xHis
[3] = molecular target: SLX4 CCD (F5) (Saccharomyces cerevisiae) (UniProt Q12098); test: EMSA; conditions: 30:1 and 60:1 protein:DNA, without SLX1; recombinant protein; residues 675-748; protein details: 6xHis
[4] = molecular target: SLX4 SAP+CCD (F1) (Saccharomyces cerevisiae) (UniProt Q12098); test: EMSA; conditions: 30:1 and 60:1 protein:DNA, without SLX1; recombinant protein; residues 610-748; protein details: 6xHis

| Sequence | binding result (SLX1 + SLX4 F2) | Kd [1] [µM] | Kd [2] [µM] | binding result [3] | binding result [4] |
| --- | --- | --- | --- | --- | --- |
| ACCAGTGCCTTGCTAGGACATCTTTGCCCA / TGGGCAAAGATGTCCATCTGTTGTAATCGT / ACGATTACAACAGAT [5'-flap DNA (Flap-15nt), FPA] | binds | 34.2 | 1.4 | – | – |
| ACCAGTGCCTTGCTAGGACATCTTTGCCCA / TGGGCAAAGATGTCCATCTGTTGTAATCGT / ACGATTACAACAGAT [5'-flap DNA, EMSA] | – | – | – | no binding | binds |
| ACCAGTGCCTTGCTAGGACATCTTTGCCCA / TGGGCAAAGATGTCCATCTGTTGTAATCGT / ACGATTACAACAGATCATGGAGCTGTCTAG / CTAGACAGCTCCATGTAGCAAGGCACTGGT [Holliday junction (XO-1/XO-2/XO-3/XO-4)] | – | – | – | no binding | binds |

Construct, isoform or probe ends are uncertain for at least one entry. For some of these results: Negatives hold for the conditions tested.
